The target of this assay is CSBΔN1 (human) (UniProt Q03468). Put plainly: ChIP-western; cells pre-extracted in Buffer B (150 mM NaCl, 0.5% Triton X-100) to remove soluble CSB and c-Jun, pellet fixed with 1% formaldehyde 10 min, sonicated; chromatin immunoprecipitated with monoclonal anti-CSB antibody 1B1, cross-links reversed, western blot for c-Jun. (Immunoblotting shows a protein as a band on a membrane.)

The chains behind the UniProt entries cited, without tags or fusion partners. Where a name states a change or a piece, a line headed by the entry shows the natural chain unless it says otherwise.
UniProt Q03468: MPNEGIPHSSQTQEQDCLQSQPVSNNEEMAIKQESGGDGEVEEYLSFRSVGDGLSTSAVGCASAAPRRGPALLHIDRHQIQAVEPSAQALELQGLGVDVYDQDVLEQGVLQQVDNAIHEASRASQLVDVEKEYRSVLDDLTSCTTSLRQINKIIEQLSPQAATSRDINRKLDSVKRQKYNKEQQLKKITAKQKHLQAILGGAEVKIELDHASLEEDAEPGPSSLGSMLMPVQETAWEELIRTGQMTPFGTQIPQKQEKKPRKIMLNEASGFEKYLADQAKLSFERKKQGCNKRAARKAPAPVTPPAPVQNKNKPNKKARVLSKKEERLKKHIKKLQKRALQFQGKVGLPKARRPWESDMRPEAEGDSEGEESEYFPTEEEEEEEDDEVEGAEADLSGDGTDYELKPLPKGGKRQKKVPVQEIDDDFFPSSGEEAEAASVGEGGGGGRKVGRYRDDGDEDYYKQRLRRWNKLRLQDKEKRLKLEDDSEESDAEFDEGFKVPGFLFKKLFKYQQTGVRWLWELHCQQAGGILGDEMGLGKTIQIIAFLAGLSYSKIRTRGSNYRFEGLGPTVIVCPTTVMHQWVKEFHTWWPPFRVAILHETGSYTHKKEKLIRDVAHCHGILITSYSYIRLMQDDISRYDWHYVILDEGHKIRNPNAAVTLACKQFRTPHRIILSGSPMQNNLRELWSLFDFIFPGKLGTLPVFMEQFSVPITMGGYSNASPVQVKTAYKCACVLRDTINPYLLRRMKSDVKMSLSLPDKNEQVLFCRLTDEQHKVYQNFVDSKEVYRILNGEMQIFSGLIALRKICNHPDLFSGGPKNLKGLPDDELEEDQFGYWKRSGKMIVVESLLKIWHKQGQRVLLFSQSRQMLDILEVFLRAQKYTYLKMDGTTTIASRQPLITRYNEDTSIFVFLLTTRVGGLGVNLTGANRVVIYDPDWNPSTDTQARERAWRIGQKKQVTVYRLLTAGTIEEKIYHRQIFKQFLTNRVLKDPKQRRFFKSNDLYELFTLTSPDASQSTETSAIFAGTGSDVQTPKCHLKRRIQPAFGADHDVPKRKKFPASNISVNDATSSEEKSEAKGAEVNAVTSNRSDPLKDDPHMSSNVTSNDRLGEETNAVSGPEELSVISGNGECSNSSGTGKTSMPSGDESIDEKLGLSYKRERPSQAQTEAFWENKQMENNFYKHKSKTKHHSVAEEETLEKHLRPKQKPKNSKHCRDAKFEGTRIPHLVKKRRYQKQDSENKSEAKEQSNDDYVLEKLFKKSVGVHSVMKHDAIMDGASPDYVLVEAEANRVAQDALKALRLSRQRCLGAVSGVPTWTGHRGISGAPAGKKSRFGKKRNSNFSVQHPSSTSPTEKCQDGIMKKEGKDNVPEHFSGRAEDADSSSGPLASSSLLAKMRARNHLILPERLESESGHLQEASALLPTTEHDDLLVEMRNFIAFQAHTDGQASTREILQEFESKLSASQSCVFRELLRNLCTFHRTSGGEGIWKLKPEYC
UniProt P05412: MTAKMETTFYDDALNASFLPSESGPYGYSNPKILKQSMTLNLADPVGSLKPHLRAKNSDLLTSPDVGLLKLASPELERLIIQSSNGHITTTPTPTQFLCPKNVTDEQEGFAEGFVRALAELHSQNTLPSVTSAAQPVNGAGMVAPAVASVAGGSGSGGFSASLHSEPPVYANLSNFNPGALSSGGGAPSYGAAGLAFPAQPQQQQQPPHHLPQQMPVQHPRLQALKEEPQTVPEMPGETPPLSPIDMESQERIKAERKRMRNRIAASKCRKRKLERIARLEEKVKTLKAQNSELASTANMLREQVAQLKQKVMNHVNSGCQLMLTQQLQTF

These are yes or no findings as the source states them, for the method shown. A result given as binding can be weak or reduced; the word gives no strength.

As for c-Jun (from UniProt P05412 1-331), the binding entry is given as “binds”.

(Values after article PMC3990521.)
